This is an account of results in PubChem BioAssay AID493014 (National Center for Advancing Translational Sciences (NCATS), 2011).

A word on the AC50: it is the concentration giving half of the maximal activity seen.

Structures are written as SMILES. Values joined by “and” are separate entries in the source; they are usually repeats but may differ in a detail not shown here. Equal entries are not always repeated. The list shows a part of the results. These are further read-outs of the screen, such as a control signal, another cell line or another target. No call is given for them. Compounds called inactive in the main read-out are mostly missing here. Potencies come from curve fits of mixed quality, noted in brackets.

The nature of this assay: qHTS Assay to Find Inhibitors of Chronic Active B-Cell Receptor Signaling. The note with it: ABC-DLBCL IkBa-CBG/CBR reporter, luminescence ratio (green luciferase fused to IkBa over red control in TMD8 lymphoma cells), 4 h. The essentials:
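Doxycycline induced both beetle luciferases in TMD8 lymphoma cells; IKK-driven degradation limits the IkappaBalpha-fused green signal, while red luminescence normalises for cell number and nonspecific effects. Compounds tested up to 46 uM, 4 hrs.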
On the technique in general: In qHTS, concentration-response curves come from the screen itself.

The mark [1] stands for this setting: measured here: CBR red luminescence, cell number.
Setting [2] is: measured here: IkBa-CBG green luminescence.

In the case of `O=C(Nc1nccs1)C1CC(=O)N(Cc2ccco2)C1` (stereo unspecified), under setting [1], the concentration at half-maximal activity (AC50) was 11.2 µM [falling, single point].
On the same count and under the same terms, with `C#CCOCCOCCOCCNc1nc(N2CCN(C(=O)CCCCCCCCCCNC(=O)[C@@H](CCSC)n3cc(CCO)nn3)CC2)nc(N2CCN(C(=O)CCCCCCCCCCNC(=O)[C@H]([C@@H](C)CC)n3cc(CCCCN=C(N)N)nn3)CC2)n1` the figure was 14.6 µM [rising, partial curve]; with `O=[N+]([O-])c1ccc(-c2nnc(-c3ccccc3)c(NCCCO)n2)cc1`, 4.11 µM [falling, full curve].
Still for that read-out and setting: with `CCOc1ccccc1NC(=O)Nc1ccc2c(c1)OCO2` the figure was 0.251 µM [falling, full curve, poor fit]; with `O=C(c1ccc(O)cc1)c1ccc(C(=O)c2ccc(O)cc2)cc1`, 16.4 µM [falling, single point] and 25.1 µM [falling, single point]; with `O=C(COc1ccc(Cl)cc1Cl)NCCCN1CCOCC1`, 4.47 µM [rising, partial curve, poor fit].
Same read-out and setting: with `C/C(=N/OC(=O)C1CC1)c1cc(-c2ccc(Cl)cc2)no1` the figure was 3.16 µM [rising, full curve]; with `CCN(CC)S(=O)(=O)c1ccc(Cl)c(NC(=S)NC(=O)C2CCCC2)c1`, 29.1 µM [falling, single point]; with `CCCn1c(NC(=O)c2ccccc2)nc2ccccc21`, 0.00461 µM [rising, full curve, poor fit].
`O=C(Nc1nnc(-c2ccncc2)o1)c1ccccc1`: under setting [1], the AC50 is 0.631 µM [falling, full curve, poor fit].
Still for that read-out and setting: for `CCOC(=O)C1(CCOC)CCN(Cc2ccc(C(=O)OC)cc2)CC1` the value was 12.6 µM [falling, partial curve].
Still for that read-out and setting: for `Cc1nn(-c2ccccc2)nc1CNC(=O)CC(C)(C)C` the value was 0.398 µM [rising, full curve]; for `O=C(c1ccccc1)c1ccc(N2CCCC2)cc1`, 2.82 µM [rising, full curve, poor fit].
As for `O=C(COC(=O)/C=C/c1cccc([N+](=O)[O-])c1)NCCCN1CCCC1=O`, the AC50 under setting [1] is 0.1 µM [falling, full curve, poor fit] and the half-maximal activity concentration (AC50) under setting [2] is 25.1 µM [rising, partial curve, poor fit].
In the case of `C[C@@H]1CC=C[C@H]2[C@H]1C(=O)N(Cc1ccccc1)[C@H]2c1ccc2ccccc2c1Br`, the AC50 under setting [1] was 3.55 µM [falling, full curve, poor fit].
Same read-out and setting: with `Nc1nc2c(s1)C(=O)CCC2` the figure was 6.31 µM [rising, single point]; with `O=C(Nc1ccccc1)NC1CC2CCC(C1)N2Cc1nnnn1Cc1ccc2c(c1)OCO2` (stereo unspecified), 6.51 µM [rising, single point].
On the same count and under the same terms, for `CSc1ccccc1OCc1cc(C(=O)NC(C)Cc2cccc(C)n2)no1` (stereo unspecified) the value was 17.8 µM [falling, single point].
In the case of `CCn1ncc([N+](=O)[O-])c1C(=O)Nc1nc2cccc(C)c2s1`, the half-maximal activity concentration (AC50) under setting [1] is 12.6 µM [falling, single point] and the half-maximal activity concentration (AC50) under setting [2] was 11.2 µM [rising, partial curve, poor fit].
In the case of `CC(C)/C=C1\CCc2c([nH]c3ccccc23)C1=O`, the AC50 under setting [1] is 35.5 µM [falling, single point].
The same measure, in the same setting: with `Cc1ccccc1N=C(N)Nc1ccccc1C` the figure was 1.3 µM [falling, partial curve, poor fit].
The same measure, in the same setting: with `CN(CCc1ccccn1)C(=O)c1cc(COc2ccc(F)cc2F)on1` the figure was 3.55 µM [rising, single point]; with `COc1ccc(N(C)C(=O)c2cn(CC(C)C)c(=O)c3cc(OC)c(OC)cc23)cc1`, 2.82 µM [rising, partial curve]; with `Cc1c(OCC(=O)N2C[C@H]3C[C@@H](C2)c2cccc(=O)n2C3)ccc2c3c(c(=O)oc12)CCCC3`, 1.58 µM [rising, partial curve, poor fit].
On the same count and under the same terms, with `COc1ccc(Nc2nc(C(=O)N3CCc4ccccc4C3)cs2)cc1` the figure was 1.12 µM [falling, full curve, poor fit]; with `CCC(C)Nc1nc(N)c([N+](=O)[O-])c(Nc2cc(OC)ccc2OC)n1` (stereo unspecified), 6.31 µM [rising, single point].
On to `O=C(c1ccc2c(c1)N(Cc1ccccc1)C(=O)c1ccccc1S2)N1CCCC1`, for which, under setting [1], the concentration at half-maximal activity (AC50) was 14.1 µM [falling, single point].
Same read-out and setting: for `CCN(CC)S(=O)(=O)c1ccc(C)c(NC(=S)N2CCN(C/C=C/c3ccccc3)CC2)c1` the value was 28.2 µM [falling, single point].
The same measure, in the same setting: with `CCc1ccc(NC(=O)c2noc(C(C)C)c2[N+](=O)[O-])cc1` the figure was 1.41 µM [rising, full curve, poor fit].
`Cc1cccc2c1c1ccc3c(c1n2C)C(=O)C=CC3=O`: the AC50 under setting [1] is 31.6 µM [rising, single point].
Still for that read-out and setting: with `CN1CCN(c2ccc(CNS(=O)(=O)c3cccc(F)c3)cc2)CC1` the figure was 15.8 µM [rising, single point].
With `O=C(/C=C/c1cccc(OCc2ccccc2)c1)c1cccnc1`, the half-maximal activity concentration (AC50) is, setting by setting: under setting [1], 20.6 µM [falling, single point]; under setting [2], 29.1 µM [rising, single point].
With `CCN1C(=NCCCOC(C)C)N[C@@H](CCc2ccccc2)[C@H](C(=O)NCCCOC(C)C)[C@H]1C`, the AC50 under setting [1] was 35.5 µM [falling, single point].
Same read-out and setting: for `COc1ccc(-n2c(SCC(=O)NNC(=O)c3ccccc3C)nnc2-c2ccncc2)cc1` the value was 5.62 µM [falling, partial curve, poor fit].
On the same count and under the same terms, for `c1ccc(Nc2nc(-c3cccnc3)cs2)nc1` the value was 7.94 µM [falling, partial curve, poor fit]; for `CC(C)[C@H](NS(=O)(=O)/C=C/c1ccccc1)C(=O)OCC(=O)NC(N)=O`, 11.2 µM [rising, single point].
Same read-out and setting: with `COc1ccccc1NC(=O)Cn1c(O)c(N=NC(=O)c2ccccc2O)c2ccccc21` the figure was 1.58 µM [falling, partial curve, poor fit]; with `O=C(O)c1ccccc1-c1ccc(/C=C/c2cc(C(F)(F)F)[nH]c(=O)n2)o1`, 35.5 µM [falling, single point]; with `CCOc1ccccc1NC(=O)CSc1nnc2[nH]c(=O)cc(C)n12`, 22.4 µM [falling, single point].
Consider `Cc1ccc(N=Cc2c(C)[nH]n(-c3nc4ccccc4[nH]3)c2=O)cc1`, for which the AC50 under setting [1] is 2.31 µM [falling, full curve, poor fit].
With `CSc1nc2sc3c(c2c(=S)[nH]1)CC(C)(C)OC3`, the AC50 under setting [1] was 0.562 µM [rising, full curve, poor fit].
On the same count and under the same terms, for `O=C(COc1ccc(Br)cc1)Nc1nc(-c2cccnc2)cs1` the value was 0.708 µM [rising, partial curve, poor fit].
Consider `Cc1ccc(OCc2nc(-c3ccccc3)no2)c(C)c1`, for which the AC50 under setting [1] is 0.1 µM [rising, full curve, poor fit].
As for `O=C(NCc1cccs1)C1CC(c2ccc(Cl)cc2)=NO1` (stereo unspecified), the concentration at half-maximal activity (AC50) under setting [1] is 3.98 µM [falling, full curve].
Same read-out and setting: with `COc1ccccc1NC(=O)CSc1nc2[nH]ncc2c(=O)[nH]1` the figure was 29.1 µM [falling, single point]; with `Cc1cc(C)c(O)c(-c2cc(C(=O)NCCc3ccc(S(N)(=O)=O)cc3)[nH]n2)c1`, 35.5 µM [falling, single point]; with `CC(=O)Oc1ccc(N2C(=O)C3C(C2=O)C2(C)C=CC3(C)O2)cc1` (stereo unspecified), 22.4 µM [falling, single point].
On the same count and under the same terms, for `COc1cccc(CNC(=O)CN2CCC(c3nc4ccc(C)cc4[nH]3)CC2)c1` the value was 11.2 µM [rising, partial curve, poor fit].
Still for that read-out and setting: for `Cc1cc(-c2n[nH]c(=S)n2/N=C/c2c[nH]c3ccccc23)n[nH]1` the value was 0.316 µM [rising, full curve, poor fit]; for `CCOc1ccc(/C=C2\CCC(C3CCCC3)C2=O)cc1OC` (stereo unspecified), 2.82 µM [rising, full curve, poor fit].
For `O=C(COC(=O)C1CCCO1)Nc1nc(-c2ccc(F)cc2)cs1` (stereo unspecified), the concentration at half-maximal activity (AC50) is, setting by setting: under setting [1], 4.11 µM [falling, single point]; under setting [2], 6.51 µM [rising, partial curve, poor fit].
On to `C=C(C)c1ccc(C(C)(C)NC(=O)NCc2ccco2)cc1`, for which the concentration at half-maximal activity (AC50) under setting [1] was 0.116 µM [falling, full curve].
Regarding `O=C(NC(=S)Nc1ccc2nc[nH]c2c1)c1ccccc1`, the AC50 under setting [1] was 7.94 µM [falling, partial curve, poor fit].
Regarding `COc1ccc2[nH]c3c(c2c1)CCNC3C1CC=C(C)CC1` (stereo unspecified), the AC50 under setting [1] was 31.6 µM [rising, single point] and the concentration at half-maximal activity (AC50) under setting [2] was 35.5 µM [falling, single point].
With `CN(C)CCCN(C(=O)COc1ccc(Cl)cc1)c1nc2cc3c(cc2s1)OCCO3`, the AC50 under setting [1] is 0.231 µM [falling, full curve].
Same read-out and setting: for `O=C(c1ccc2c(=O)n3c(nc2c1)CCCCC3)N1CCN(Cc2ccccc2)CC1` the value was 16.4 µM [rising, single point].
Same read-out and setting: for `CCCCc1cc2c(s1)CCCC/C2=N/O` the value was 11.6 µM [rising, partial curve].
The same measure, in the same setting: for `COC(=O)c1ccccc1NC(=O)CN(c1ccc(C)cc1)S(C)(=O)=O` the value was 3.16 µM [rising, single point]; for `CCC(=O)N/N=C(\C)CC(=O)Nc1ccccc1-c1ccccc1`, 20.6 µM [falling, single point]; for `Cc1ccc2oc(-c3cccc(N)c3)nc2c1`, 11.2 µM [falling, single point].
For `COc1ccc(-c2cc(C(=O)Nc3cc(S(=O)(=O)N4CCOCC4)ccc3N3CCOCC3)c3ccccc3n2)cc1`, the AC50 under setting [1] was 1.58 µM [rising, partial curve].
